The supplement of paper PMC12819154, “High-throughput peptide-centric local stability assay extends protein–ligand identification to membrane proteins, tissues and bacteria” (Nature Structural & Molecular Biology, 2025)
The list shows a part of the results. Most values lie at the level of the controls, where differences are scatter.

By UniProt entry, the sequences of proteins in these tests, tags left out. Where a name states a change or a piece, a line headed by the entry shows the natural chain unless it says otherwise.
UniProt O08692: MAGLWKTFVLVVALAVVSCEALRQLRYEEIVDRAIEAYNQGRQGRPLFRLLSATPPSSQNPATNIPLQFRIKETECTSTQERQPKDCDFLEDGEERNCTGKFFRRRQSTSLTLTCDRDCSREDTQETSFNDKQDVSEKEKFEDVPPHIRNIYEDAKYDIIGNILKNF
UniProt E9PY46: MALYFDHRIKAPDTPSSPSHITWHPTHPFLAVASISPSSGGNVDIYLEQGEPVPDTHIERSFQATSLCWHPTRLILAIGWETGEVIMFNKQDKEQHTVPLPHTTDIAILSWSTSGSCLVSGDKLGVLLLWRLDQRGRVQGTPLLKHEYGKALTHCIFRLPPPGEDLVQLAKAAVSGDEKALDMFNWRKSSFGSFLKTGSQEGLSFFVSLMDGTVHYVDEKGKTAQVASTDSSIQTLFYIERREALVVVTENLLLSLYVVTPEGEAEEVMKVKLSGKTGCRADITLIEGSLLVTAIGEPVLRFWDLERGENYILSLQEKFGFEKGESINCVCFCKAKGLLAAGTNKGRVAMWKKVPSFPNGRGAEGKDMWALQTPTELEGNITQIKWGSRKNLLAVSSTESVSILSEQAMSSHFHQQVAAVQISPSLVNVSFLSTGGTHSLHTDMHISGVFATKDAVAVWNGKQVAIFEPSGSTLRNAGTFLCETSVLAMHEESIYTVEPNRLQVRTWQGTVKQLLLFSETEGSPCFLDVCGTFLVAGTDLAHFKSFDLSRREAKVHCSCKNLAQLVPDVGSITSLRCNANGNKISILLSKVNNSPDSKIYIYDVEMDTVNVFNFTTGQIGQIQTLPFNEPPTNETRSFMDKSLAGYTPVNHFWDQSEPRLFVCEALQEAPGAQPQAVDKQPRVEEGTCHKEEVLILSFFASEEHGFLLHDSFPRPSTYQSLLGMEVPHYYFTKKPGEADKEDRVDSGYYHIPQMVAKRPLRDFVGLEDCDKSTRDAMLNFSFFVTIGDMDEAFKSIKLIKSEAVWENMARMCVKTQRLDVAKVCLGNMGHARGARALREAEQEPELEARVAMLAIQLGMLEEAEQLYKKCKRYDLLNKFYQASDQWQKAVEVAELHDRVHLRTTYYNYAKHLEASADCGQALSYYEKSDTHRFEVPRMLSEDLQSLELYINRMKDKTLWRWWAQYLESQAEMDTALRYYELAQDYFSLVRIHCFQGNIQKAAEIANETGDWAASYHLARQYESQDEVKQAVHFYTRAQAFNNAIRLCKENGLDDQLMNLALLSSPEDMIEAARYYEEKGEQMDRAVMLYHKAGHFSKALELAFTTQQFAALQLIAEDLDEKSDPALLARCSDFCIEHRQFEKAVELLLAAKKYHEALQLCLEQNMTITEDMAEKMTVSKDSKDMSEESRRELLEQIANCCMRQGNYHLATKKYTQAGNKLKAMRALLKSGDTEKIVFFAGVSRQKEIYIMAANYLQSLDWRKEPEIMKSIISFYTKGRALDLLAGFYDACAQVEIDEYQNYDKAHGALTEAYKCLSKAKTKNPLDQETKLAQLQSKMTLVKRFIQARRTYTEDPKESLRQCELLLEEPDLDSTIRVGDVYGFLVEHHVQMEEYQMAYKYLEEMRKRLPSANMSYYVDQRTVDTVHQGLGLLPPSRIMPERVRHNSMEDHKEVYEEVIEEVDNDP
UniProt O35127: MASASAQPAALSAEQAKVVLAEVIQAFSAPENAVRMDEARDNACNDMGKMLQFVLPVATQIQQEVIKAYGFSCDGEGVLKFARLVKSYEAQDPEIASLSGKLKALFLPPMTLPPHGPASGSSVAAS
UniProt O08785: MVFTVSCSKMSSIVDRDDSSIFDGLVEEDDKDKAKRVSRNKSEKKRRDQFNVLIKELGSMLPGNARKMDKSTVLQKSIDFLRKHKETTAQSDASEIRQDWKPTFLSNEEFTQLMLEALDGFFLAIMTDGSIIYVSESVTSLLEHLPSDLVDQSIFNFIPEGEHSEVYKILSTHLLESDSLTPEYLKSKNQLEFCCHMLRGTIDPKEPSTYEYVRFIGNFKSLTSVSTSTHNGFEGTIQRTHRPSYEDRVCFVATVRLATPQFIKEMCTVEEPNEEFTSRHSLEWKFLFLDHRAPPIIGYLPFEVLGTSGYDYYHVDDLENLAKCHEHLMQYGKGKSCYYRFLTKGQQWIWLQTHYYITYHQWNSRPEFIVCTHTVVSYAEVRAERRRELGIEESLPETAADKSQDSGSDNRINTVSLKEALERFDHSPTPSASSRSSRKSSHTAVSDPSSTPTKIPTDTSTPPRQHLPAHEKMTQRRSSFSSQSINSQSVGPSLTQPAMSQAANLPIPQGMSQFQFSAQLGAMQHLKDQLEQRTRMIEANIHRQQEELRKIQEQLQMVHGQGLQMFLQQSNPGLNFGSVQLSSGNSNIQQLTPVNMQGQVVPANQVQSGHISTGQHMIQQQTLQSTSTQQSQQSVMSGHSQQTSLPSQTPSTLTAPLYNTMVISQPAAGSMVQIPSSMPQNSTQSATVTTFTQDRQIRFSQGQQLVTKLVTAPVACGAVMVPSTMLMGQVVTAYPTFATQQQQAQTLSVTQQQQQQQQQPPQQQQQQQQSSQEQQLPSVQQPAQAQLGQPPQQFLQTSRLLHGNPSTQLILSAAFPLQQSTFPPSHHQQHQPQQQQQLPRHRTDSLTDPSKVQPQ
UniProt B2RY04, whole entry: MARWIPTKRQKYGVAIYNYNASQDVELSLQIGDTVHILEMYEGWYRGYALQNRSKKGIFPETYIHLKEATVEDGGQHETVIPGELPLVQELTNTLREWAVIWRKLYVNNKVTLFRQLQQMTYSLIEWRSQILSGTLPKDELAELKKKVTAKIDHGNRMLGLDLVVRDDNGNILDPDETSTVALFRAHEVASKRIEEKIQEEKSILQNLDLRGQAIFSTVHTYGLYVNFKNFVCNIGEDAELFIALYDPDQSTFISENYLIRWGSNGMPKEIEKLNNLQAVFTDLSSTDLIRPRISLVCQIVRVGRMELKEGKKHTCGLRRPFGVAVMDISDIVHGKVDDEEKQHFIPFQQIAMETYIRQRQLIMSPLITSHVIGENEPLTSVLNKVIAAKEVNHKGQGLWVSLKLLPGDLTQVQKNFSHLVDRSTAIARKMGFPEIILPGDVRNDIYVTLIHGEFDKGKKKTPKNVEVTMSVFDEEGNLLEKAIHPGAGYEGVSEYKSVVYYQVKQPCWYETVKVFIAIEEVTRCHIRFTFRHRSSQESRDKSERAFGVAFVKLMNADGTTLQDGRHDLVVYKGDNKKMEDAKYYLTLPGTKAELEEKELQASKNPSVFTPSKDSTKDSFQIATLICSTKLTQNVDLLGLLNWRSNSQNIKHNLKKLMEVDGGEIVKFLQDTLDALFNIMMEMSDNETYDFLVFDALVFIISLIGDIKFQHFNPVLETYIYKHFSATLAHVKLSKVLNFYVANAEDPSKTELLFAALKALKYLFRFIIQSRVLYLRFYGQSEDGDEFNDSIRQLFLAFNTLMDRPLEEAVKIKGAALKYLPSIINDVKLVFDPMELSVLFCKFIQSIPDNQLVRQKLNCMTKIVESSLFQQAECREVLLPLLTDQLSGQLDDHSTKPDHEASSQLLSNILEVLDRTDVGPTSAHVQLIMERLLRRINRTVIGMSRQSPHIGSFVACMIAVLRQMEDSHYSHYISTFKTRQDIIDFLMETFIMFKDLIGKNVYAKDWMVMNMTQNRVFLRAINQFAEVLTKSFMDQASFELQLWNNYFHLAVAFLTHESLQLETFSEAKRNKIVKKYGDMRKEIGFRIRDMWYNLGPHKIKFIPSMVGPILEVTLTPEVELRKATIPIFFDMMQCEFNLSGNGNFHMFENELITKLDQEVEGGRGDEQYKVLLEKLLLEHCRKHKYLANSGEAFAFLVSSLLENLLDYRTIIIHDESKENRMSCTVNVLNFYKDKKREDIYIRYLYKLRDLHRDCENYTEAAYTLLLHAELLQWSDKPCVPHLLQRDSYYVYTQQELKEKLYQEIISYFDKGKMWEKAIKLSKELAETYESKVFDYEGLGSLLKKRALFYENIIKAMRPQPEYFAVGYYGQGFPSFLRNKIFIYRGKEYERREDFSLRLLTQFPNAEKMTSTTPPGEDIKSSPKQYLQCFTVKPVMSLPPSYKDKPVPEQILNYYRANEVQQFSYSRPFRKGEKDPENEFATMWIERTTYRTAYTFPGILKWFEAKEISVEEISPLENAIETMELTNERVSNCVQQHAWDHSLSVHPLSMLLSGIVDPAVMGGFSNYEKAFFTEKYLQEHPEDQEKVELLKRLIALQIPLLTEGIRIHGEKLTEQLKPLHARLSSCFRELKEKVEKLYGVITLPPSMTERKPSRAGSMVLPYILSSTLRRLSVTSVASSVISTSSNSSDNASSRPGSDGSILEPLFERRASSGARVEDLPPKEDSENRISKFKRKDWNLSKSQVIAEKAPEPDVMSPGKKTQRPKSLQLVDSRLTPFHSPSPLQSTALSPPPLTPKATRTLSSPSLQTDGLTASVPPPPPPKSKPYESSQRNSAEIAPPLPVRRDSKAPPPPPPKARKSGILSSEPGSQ
UniProt O08856: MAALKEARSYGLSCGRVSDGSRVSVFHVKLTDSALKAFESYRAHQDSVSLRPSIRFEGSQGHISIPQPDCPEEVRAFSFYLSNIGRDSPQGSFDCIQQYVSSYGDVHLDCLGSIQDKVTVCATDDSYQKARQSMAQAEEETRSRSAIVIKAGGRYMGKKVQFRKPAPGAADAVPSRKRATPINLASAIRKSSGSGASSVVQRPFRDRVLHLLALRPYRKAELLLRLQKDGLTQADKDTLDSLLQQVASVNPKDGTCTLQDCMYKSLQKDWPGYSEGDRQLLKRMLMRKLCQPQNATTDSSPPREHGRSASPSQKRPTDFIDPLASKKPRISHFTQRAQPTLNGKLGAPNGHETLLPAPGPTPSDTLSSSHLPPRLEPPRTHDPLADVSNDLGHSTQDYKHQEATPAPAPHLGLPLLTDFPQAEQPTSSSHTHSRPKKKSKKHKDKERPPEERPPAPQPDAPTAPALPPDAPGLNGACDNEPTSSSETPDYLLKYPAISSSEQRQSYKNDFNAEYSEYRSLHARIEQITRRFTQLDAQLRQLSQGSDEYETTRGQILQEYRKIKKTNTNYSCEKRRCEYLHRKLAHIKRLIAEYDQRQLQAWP
UniProt O35188: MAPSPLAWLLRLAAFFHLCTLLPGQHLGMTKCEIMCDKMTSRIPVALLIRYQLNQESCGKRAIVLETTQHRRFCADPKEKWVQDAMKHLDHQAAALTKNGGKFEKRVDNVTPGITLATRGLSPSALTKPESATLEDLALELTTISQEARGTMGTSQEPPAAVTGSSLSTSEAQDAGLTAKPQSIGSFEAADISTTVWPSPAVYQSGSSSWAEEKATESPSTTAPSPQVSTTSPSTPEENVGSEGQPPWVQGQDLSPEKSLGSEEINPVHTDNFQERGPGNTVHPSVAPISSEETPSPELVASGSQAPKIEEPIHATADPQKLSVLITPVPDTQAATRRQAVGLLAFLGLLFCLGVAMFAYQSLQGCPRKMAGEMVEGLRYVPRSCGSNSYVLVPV
UniProt O35465: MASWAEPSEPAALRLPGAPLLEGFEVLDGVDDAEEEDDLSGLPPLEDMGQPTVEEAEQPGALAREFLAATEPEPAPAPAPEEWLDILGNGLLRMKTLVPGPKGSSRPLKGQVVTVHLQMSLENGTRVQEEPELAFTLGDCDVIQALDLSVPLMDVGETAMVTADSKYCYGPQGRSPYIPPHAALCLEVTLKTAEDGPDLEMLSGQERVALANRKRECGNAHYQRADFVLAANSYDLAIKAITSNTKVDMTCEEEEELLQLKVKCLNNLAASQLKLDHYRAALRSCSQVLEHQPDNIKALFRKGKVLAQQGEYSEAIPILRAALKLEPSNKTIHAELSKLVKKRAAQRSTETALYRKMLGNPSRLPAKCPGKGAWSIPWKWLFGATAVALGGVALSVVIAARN
UniProt G5E861: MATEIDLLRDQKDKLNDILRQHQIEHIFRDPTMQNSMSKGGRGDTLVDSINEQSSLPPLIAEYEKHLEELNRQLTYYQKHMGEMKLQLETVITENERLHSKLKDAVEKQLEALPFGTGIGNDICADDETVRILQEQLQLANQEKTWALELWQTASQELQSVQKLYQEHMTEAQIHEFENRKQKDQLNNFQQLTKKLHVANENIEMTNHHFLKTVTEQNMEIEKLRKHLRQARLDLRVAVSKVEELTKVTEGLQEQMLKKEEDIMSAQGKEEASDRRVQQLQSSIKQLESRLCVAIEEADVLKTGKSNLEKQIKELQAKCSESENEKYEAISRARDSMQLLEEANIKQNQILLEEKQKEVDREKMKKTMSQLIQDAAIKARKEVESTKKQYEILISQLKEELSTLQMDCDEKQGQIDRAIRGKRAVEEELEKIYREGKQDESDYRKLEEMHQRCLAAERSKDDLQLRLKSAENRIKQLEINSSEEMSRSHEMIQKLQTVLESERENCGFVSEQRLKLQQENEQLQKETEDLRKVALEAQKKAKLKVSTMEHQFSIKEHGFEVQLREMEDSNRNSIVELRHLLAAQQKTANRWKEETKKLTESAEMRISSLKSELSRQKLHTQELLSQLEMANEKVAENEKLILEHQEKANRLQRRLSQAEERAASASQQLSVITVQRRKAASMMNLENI

Compound: CN[C@@H]1C[C@H]2O[C@@](C)([C@@H]1OC)n1c3ccccc3c3c4c(c5c6ccccc6n2c5c31)C(=O)NC4 [staurosporine]
Experiment: log2 fold change of tryptic peptide abundance, ligand vs vehicle (limited proteolysis) (log2 ratio); higher = more trypsin-susceptible (destabilized)
Details: ligand concentration: 20 uM; sample: mouse liver crude lysate; replicate design: treated separately

Target: UniProt O08740 (peptide sequence: ITINKDTK, peptide start residue: 19)
- log2 fold change: -0.474

Target: UniProt G3X9J0 (peptide sequence: FAELFSR, peptide start residue: 1765)
- log2 fold change: -0.402

Target: UniProt O08692 (peptide sequence: AIEAYNQGR, peptide start residue: 34)
- log2 fold change: -0.211

Target: UniProt O35134 (peptide sequence: GGTGLFELK, peptide start residue: 1705)
- log2 fold change: 0.459

Target: UniProt O08573 (peptide sequence: FFVQYQHR, peptide start residue: 117)
- log2 fold change: 0.506

Target: UniProt O35071 (peptide sequence: TYGKPEGPGDAWR, peptide start residue: 785)
- log2 fold change: 0.241

Target: UniProt O35166 (peptide sequence: QRDELLSR, peptide start residue: 100)
- log2 fold change: 0.138

Target: UniProt O09173 (peptide sequence: WKPFEIPK, peptide start residue: 97)
- log2 fold change: 0.285

Target: UniProt E9PVD3 (peptide sequence: ENAPPGTPVISPK, peptide start residue: 2072)
- log2 fold change: 0.349

Target: UniProt B2RX88 (peptide sequence: FMAEHLNEEQHK, peptide start residue: 1176)
- log2 fold change: 0.33

Target: UniProt D3YWE6 (peptide sequence: KMPVGLEPAVGSR, peptide start residue: 316)
- log2 fold change: 0.409

Target: UniProt O08738 (peptide sequence: RVDFCKDPDAIGK, peptide start residue: 242)
- log2 fold change: -0.534

Target: UniProt E9PY46 (peptide sequence: VCLGNMGHAR, peptide start residue: 823)
- log2 fold change: 0.732

Target: UniProt O08900 (peptide sequence: DALTGHLR, peptide start residue: 185)
- log2 fold change: 0.112

Target: UniProt O08709 (peptide sequence: KGESVMVVPTLSEEEAKQCFPK, peptide start residue: 183)
- log2 fold change: -0.173

Target: UniProt O08966 (peptide sequence: AKENTIYLQVQTGK, peptide start residue: 539)
- log2 fold change: -0.491

Target: UniProt E9Q555 (peptide sequence: QAAVVMLDR, peptide start residue: 500)
- log2 fold change: 0.364

Target: UniProt O08576 (peptide sequence: GFWDYIR, peptide start residue: 92)
- log2 fold change: 0.224

Target: UniProt O35127 (peptide sequence: DNACNDMGK, peptide start residue: 41)
- log2 fold change: -0.011

Target: UniProt G3XA57 (peptide sequence: WFPTHVQVTVLQAK, peptide start residue: 10)
- log2 fold change: -0.221

Target: UniProt O08785 (peptide sequence: HRTDSLTDPSK, peptide start residue: 841)
- log2 fold change: 0.192

Target: UniProt O35387 (peptide sequence: YPDSHQPR, peptide start residue: 133)
- log2 fold change: -0.253

Target: UniProt O08550 (peptide sequence: VLSLGPAPEPPKPATSK, peptide start residue: 2170)
- log2 fold change: -0.325

Target: UniProt B2RY04 (peptide sequence: TAYTFPGILK, peptide start residue: 1491)
- log2 fold change: -0.402

Target: UniProt O08856 (peptide sequence: VLHLLALRPYRK, peptide start residue: 208)
- log2 fold change: -0.466

Target: UniProt O08530 (peptide sequence: RPIIPGMEFSR, peptide start residue: 342)
- log2 fold change: -0.144

Target: UniProt E9Q7D5 (peptide sequence: STESLPLTSR, peptide start residue: 891)
- log2 fold change: 0.137

Target: UniProt E9Q4Z2 (peptide sequence: QTTSDSAIPIR, peptide start residue: 1628)
- log2 fold change: -0.399

Target: UniProt O08755 (peptide sequence: ITTELKR, peptide start residue: 301)
- log2 fold change: -0.31

Target: UniProt O08808 (peptide sequence: SPDELPATGGDGGKHK, peptide start residue: 22)
- log2 fold change: 0.373

Target: UniProt G5E897 (peptide sequence: LQLVLLSK, peptide start residue: 319)
- log2 fold change: 0.158

Target: UniProt O35188 (peptide sequence: IPVALLIR, peptide start residue: 43)
- log2 fold change: 0.235

Target: UniProt E9PVB5 (peptide sequence: IHIEENEDRDTGLEQR, peptide start residue: 91)
- log2 fold change: -0.106

Target: UniProt O35465 (peptide sequence: VKCLNNLAASQLK, peptide start residue: 262)
- log2 fold change: -0.227

Target: UniProt G5E861 (peptide sequence: HLLAAQQK, peptide start residue: 579)
- log2 fold change: -0.443

Target: UniProt O09158 (peptide sequence: NRVDFLQLMMNTQNSK, peptide start residue: 267)
- log2 fold change: 0.27
